Values from PubChem BioAssay AID1671195 (Yale University, 2021)
In all, the deposit lists about 22,000 reagents; this is an unselected part. Of all reagents, about 1,510 (6.9%) got an active call. 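Active includes knockdowns raising or lowering LDL uptake; positive z-scores mean more uptake, negative mean less.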 A number with no mark means an inactive call. Reagent sequences are not shown.

- Assay: 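Genes whose knockdown alters LDL uptake in liver cancer cells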 (primary screen)
- Cell system: human Huh7 hepatoma cells
- Reagents: siRNA pool against human genes, 18 nM
- Timing: about 2 to 2.5 days of knockdown, then 8 h LDL uptake
- Conditions: DiI-labelled LDL at 30 µg/ml for 8 h, in lipoprotein-deficient serum medium
- Detection: 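Per-cell DiI-LDL intensity by automated imaging; well means scaled to the plate median and given as a robust z-score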
- Direction: robust z-score: higher = more LDL uptake after knockdown
- Call rule: 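a gene counts as active if at least two replicate z-scores exceed ±2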

SLC6A18 — robust z-score, replicate 1 = -0.499; robust z-score, replicate 2 = 0.0498; robust z-score, replicate 3 = -0.45
JPT1 (Jupiter microtubule associated homolog 1) — robust z-score, replicate 1 = -1.55; robust z-score, replicate 2 = 0.63; robust z-score, replicate 3 = 0.334
KNTC1 (kinetochore associated 1) — robust z-score, replicate 1 = 1.41; robust z-score, replicate 2 = 1.76; robust z-score, replicate 3 = -0.442
KIAA1549 — robust z-score, replicate 1 = -1.78; robust z-score, replicate 2 = -1.93; robust z-score, replicate 3 = -1.8
IFI44L (interferon induced protein 44 like) — robust z-score, replicate 1 = -1.21; robust z-score, replicate 2 = 0.429; robust z-score, replicate 3 = -1.22
TEKT4P2 (tektin 4 pseudogene 2) — robust z-score, replicate 1 = -0.305; robust z-score, replicate 2 = -0.194; robust z-score, replicate 3 = -0.485
EGR1 (early growth response 1) — robust z-score, replicate 1 = -0.539; robust z-score, replicate 2 = -0.256; robust z-score, replicate 3 = -1.48
LOC440496 (retired record) — robust z-score, replicate 1 = -0.608; robust z-score, replicate 2 = -0.506; robust z-score, replicate 3 = -0.642
OXTR (oxytocin receptor) — robust z-score, replicate 1 = 0.0647; robust z-score, replicate 2 = -0.257; robust z-score, replicate 3 = 0.971
GOLGA1 (golgin A1) — robust z-score, replicate 1 = -0.715; robust z-score, replicate 2 = -0.233; robust z-score, replicate 3 = -1.65
NEURL1 (neuralized E3 ubiquitin protein ligase 1) — robust z-score, replicate 1 = 2.61 (active); robust z-score, replicate 2 = 1.98; robust z-score, replicate 3 = 3.92
TRIM9 (tripartite motif containing 9) — robust z-score, replicate 1 = -0.0604; robust z-score, replicate 2 = -1.3; robust z-score, replicate 3 = -0.915
SLC36A2 — robust z-score, replicate 1 = 0.00122; robust z-score, replicate 2 = 1.4; robust z-score, replicate 3 = -0.0316
OPN1LW (opsin 1, long wave sensitive) — robust z-score, replicate 1 = -0.907; robust z-score, replicate 2 = -1.09; robust z-score, replicate 3 = -0.718
COMMD10 (COMM domain containing 10) — robust z-score, replicate 1 = 0.719; robust z-score, replicate 2 = 0.507; robust z-score, replicate 3 = 0.574
VPS35L (VPS35 endosomal protein sorting factor like) — robust z-score, replicate 1 = -0.12; robust z-score, replicate 2 = 0.673; robust z-score, replicate 3 = -0.268

Targets above whose gene name begins with O or o:
OXTR (oxytocin receptor) — robust z-score, replicate 1 = 0.0647; robust z-score, replicate 2 = -0.257; robust z-score, replicate 3 = 0.971
OPN1LW (opsin 1, long wave sensitive) — robust z-score, replicate 1 = -0.907; robust z-score, replicate 2 = -1.09; robust z-score, replicate 3 = -0.718
